Results deposited as PubChem BioAssay AID1159578 (Peter MacCallum Cancer Centre, 2015)
In all, the deposit lists about 18,000 reagents; shown is an unselected part. About 1,030 of all reagents (5.7%) were called active. 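Inactive calls also include pools with fewer than 3300 nuclei, whose migration was not assessed.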 Raw values vary from plate to plate and are shown uncorrected. Not all columns of the deposit are shown. No sequences are given here.

Aim: 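Knock-downs that alter how fast lymphatic endothelial cells migrate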 (primary screen)
Cell system: human lymphatic endothelial cells
Reagent: siRNA pool against human genes, 40 nM
Time to read-out: 48 h after transfection
Detection: 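Cells stained with dye and imaged after a scratch; covered wound area and nuclei counted, duplicates averaged, migration set against mock wells and turned into a robust z-score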
Direction: migration robust z-score: higher = faster migration into the scratch; nuclei per well: higher = more cells in the well
Hit rule: 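Pools averaging fewer than 3300 nuclei are never called; remaining pools count as changed when migration robust z lies outside -2 to 2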
Calls: active = migration changed; inactive = no migration change, or too few cells

| gene | migration robust z-score | migration class with cell-count check | nuclei per well, duplicate mean | outcome |
| --- | --- | --- | --- | --- |
| RPS6KA5 | -1.84 | under 3300 nuclei; migration not judged | 2912 | inactive |
| PNLIPRP2 | -1.27 | migration z between -2 and 2; enough cells | 6634 | inactive |
| GCSAML | 0.41 | migration z between -2 and 2; enough cells | 4570 | inactive |
| RGPD2 | 0.84 | migration z between -2 and 2; enough cells | 6846 | inactive |
| CLVS2 | 0.15 | migration z between -2 and 2; enough cells | 6659 | inactive |
| SEMA3B | 0.12 | migration z between -2 and 2; enough cells | 5508 | inactive |
| NXN | 1.48 | migration z between -2 and 2; enough cells | 5428 | inactive |
| CLPS | 1.15 | migration z between -2 and 2; enough cells | 6579 | inactive |

Records listed so far whose target name starts with R or r:
| gene | migration robust z-score | migration class with cell-count check | nuclei per well, duplicate mean | outcome |
| --- | --- | --- | --- | --- |
| RPS6KA5 | -1.84 | under 3300 nuclei; migration not judged | 2912 | inactive |
| RGPD2 | 0.84 | migration z between -2 and 2; enough cells | 6846 | inactive |

Continued.
| gene | migration robust z-score | migration class with cell-count check | nuclei per well, duplicate mean | outcome |
| --- | --- | --- | --- | --- |
| IL4R | -0.52 | migration z between -2 and 2; enough cells | 4574 | inactive |
| HERC6 | -0.16 | migration z between -2 and 2; enough cells | 3612 | inactive |
| RCN1 | -0.22 | migration z between -2 and 2; enough cells | 5389 | inactive |
| IFITM3 | -0.58 | migration z between -2 and 2; enough cells | 4704 | inactive |
| SFPQ | 0.37 | migration z between -2 and 2; enough cells | 5746 | inactive |
| SFRP5 | 0.75 | migration z between -2 and 2; enough cells | 5636 | inactive |
| MBNL2 | -0.21 | migration z between -2 and 2; enough cells | 5496 | inactive |
| SERPINB11 | 0.94 | migration z between -2 and 2; enough cells | 6147 | inactive |
| SLC38A12 | 0.1 | migration z between -2 and 2; enough cells | 6502 | inactive |
| NRDE2 | -0.44 | migration z between -2 and 2; enough cells | 5550 | inactive |
| LZTR1 | -0.44 | migration z between -2 and 2; enough cells | 5720 | inactive |
| ZNF254 | 1.34 | migration z between -2 and 2; enough cells | 5656 | inactive |
| ADH4 | -0.28 | migration z between -2 and 2; enough cells | 4273 | inactive |
| CMTR1 | 0.85 | migration z between -2 and 2; enough cells | 6116 | inactive |
| HUS1 | 1.17 | migration z between -2 and 2; enough cells | 4784 | inactive |
